No constants are given. Whether binding was seen depends on the method and setting. Binding seen in cells or lysates may run through a third protein. Some binding calls cover weakened binding; strength is not graded here.
Biological target: DOT1L histone H3 lysine 79 (H3K79) methyltransferase (human (endogenous in HPM)) (UniProt Q8TEK3)
Assay: co-IP; whole-cell extracts of HPMs subjected to 100 J m^-2 UVB; lysis buffer 50 mM Tris pH 7.4, 1% Triton X-100, 150 mM NaCl; lysate treated with DNase; IP with anti-DOT1L or anti-XPC overnight at 4 °C, western blot; with and without UVB compared for XPC and H3K79me2

Protein sequences, listed by entry. Tags and fused reporters are not part of them.
UniProt Q8TEK3: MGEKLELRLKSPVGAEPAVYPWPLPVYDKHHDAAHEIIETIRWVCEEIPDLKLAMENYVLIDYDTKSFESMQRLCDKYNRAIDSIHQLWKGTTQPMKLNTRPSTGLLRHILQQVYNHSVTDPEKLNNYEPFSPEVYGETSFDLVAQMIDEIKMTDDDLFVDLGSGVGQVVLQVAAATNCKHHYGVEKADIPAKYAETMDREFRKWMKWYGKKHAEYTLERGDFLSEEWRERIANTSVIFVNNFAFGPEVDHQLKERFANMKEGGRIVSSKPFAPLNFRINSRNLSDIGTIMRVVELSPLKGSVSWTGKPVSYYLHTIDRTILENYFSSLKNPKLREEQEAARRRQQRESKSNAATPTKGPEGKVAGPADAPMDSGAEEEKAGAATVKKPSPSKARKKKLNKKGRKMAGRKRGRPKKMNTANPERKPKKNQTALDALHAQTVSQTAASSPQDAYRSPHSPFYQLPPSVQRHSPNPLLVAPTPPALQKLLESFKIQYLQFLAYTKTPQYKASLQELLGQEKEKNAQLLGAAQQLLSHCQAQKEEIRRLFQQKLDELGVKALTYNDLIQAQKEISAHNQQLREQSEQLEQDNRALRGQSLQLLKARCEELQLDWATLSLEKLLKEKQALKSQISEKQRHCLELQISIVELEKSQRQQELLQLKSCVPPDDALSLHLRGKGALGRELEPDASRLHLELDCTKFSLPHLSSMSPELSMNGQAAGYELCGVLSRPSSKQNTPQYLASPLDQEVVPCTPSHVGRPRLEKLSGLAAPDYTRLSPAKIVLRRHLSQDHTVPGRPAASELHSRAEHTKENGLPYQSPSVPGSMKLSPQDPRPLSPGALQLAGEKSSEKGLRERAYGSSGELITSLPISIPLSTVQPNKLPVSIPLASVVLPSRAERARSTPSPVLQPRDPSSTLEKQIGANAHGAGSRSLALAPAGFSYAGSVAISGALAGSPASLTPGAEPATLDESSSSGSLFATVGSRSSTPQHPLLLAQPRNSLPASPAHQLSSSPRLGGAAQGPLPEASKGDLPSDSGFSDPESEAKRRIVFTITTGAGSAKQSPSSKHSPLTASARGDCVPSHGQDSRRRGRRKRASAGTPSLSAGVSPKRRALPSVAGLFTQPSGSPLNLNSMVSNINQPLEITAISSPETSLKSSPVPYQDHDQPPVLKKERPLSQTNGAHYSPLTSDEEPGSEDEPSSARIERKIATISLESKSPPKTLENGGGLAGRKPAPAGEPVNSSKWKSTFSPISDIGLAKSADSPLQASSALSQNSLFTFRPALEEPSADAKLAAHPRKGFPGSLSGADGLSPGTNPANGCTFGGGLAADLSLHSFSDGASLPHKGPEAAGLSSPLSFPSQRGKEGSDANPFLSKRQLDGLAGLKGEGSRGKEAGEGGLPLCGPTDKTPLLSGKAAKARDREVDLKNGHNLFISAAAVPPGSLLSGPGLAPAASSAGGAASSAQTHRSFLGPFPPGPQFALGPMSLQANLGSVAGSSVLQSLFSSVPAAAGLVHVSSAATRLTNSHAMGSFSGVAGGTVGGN
UniProt Q01831: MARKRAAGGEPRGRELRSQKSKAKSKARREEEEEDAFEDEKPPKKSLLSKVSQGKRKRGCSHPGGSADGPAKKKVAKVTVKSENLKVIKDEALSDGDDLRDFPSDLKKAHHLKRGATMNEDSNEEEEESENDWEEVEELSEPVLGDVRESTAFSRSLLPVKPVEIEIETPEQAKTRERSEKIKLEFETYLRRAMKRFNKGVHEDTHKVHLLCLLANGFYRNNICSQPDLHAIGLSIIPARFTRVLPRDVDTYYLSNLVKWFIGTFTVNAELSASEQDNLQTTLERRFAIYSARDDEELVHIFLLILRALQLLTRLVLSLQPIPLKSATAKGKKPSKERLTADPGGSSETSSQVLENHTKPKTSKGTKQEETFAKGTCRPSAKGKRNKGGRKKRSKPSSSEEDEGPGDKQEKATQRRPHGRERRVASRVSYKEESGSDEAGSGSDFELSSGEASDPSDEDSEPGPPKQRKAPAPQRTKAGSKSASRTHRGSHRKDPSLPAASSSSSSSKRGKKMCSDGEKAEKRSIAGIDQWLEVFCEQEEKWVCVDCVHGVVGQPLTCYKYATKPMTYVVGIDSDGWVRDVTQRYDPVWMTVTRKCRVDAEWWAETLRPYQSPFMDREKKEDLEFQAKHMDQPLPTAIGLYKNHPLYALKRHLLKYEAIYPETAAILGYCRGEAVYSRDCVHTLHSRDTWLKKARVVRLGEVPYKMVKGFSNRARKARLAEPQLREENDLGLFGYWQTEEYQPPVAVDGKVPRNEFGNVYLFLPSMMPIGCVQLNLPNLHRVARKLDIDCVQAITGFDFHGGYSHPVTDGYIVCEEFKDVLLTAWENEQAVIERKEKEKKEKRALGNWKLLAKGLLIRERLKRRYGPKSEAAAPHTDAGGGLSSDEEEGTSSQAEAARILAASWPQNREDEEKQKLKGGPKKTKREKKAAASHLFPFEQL

binding: binds
Substance: xeroderma pigmentosum, complementation group C (XPC) (from UniProt Q01831 1-940)
